Results are given in words; binding and its absence hold for the method and conditions named.
Biological target: PD-L1 on mouse lymphatic endothelial cells (LEC PD-L1) (mouse (endogenous in primary C57BL/6 dermal LECs)) (UniProt Q9EP73)
Experiment: flow cytometry on cells; plated mouse LECs incubated with the Ig fusion or control human IgG1 for 1 hour at 37 °C, washed, stained with PE anti-human IgG1 for bound Igs; only the binder purified

Sequences of proteins named here, by UniProt entry; tags and fusion partners are left off. Residues count along the entry.
UniProt Q9EP73, residues 19-290: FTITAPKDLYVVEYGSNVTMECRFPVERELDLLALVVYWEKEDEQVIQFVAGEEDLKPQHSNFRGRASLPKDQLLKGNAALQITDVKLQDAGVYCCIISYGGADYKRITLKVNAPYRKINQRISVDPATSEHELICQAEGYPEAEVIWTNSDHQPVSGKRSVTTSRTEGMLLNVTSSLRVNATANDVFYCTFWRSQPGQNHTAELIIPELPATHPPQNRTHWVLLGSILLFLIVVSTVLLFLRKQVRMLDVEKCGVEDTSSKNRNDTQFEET
UniProt P09793, residues 36-161: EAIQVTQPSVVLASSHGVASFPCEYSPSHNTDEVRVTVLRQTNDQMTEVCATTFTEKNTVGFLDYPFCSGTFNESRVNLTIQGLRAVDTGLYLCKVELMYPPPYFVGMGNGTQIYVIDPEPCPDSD

binding: no binding
Substance: Recombinant mouse CTLA4 Ig (from UniProt P09793 36-161) (Fc fusion)

Reference: article PMC9023578
